Source: article PMC9863049
These are yes or no findings as the source states them, for the method shown. In cells and extracts the contact can be indirect. Some entries that bind do so weakly or less than the wild type. Where a sequence is shown, tags or fusion partners need not be part of it.

The chains behind the UniProt entries cited, without tags or fusion partners.
UniProt Q8VYM0: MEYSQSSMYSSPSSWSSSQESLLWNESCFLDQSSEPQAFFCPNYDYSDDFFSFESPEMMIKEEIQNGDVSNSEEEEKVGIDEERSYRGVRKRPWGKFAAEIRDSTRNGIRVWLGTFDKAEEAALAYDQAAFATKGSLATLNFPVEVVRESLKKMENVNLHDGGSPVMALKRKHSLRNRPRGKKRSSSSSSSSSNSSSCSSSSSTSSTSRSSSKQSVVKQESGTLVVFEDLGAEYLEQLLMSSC
UniProt Q9LND1: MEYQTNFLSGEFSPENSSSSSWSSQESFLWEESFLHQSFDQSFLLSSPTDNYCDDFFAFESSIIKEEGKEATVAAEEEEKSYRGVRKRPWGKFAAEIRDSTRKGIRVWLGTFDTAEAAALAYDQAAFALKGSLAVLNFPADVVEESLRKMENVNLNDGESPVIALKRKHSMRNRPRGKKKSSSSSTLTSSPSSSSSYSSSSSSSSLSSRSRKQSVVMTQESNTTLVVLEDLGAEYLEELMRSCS

T1: jasmonate-associated VQ-motif gene1 (JAV1) fused to the N-terminal fragment of Venus (JAV1-nVenus) (Arabidopsis thaliana) (UniProt Q9LIE6)
T1 sequence: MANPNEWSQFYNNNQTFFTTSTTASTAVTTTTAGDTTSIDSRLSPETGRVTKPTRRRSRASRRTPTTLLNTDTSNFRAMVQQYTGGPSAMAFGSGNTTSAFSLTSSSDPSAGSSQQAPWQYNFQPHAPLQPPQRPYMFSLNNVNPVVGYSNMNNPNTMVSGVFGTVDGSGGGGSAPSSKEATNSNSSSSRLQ

T2: JAZ8 fused to the N-terminal fragment of Venus (JAZ8-nVenus) (Arabidopsis thaliana) (UniProt Q8LBM2)
T2 sequence: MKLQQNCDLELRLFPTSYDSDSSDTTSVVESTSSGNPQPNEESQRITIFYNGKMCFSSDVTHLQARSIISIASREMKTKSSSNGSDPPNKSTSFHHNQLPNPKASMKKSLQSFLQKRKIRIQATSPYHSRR

B1: bZIP53 fused to the C-terminal fragment of Venus (bZIP53-cVenus) (protein, UniProt Q9LZP8 1-146)
chain: MGSLQMQTSPESDNDPRYATVTDERKRKRMISNRESARRSRMRKQKQLGDLINEVTLLKNDNAKITEQVDEASKKYIEMESKNNVLRAQASELTDRLRSLNSVLEMVEEISGQALDIPEIPESMQNPWQMPCPMQPIRASADMFDC

Experiments:
[1] = target: T1, jasmonate-associated VQ-motif gene1 (JAV1) fused to the N-terminal fragment of Venus (JAV1-nVenus) (Arabidopsis thaliana); experiment: split reporter; BiFC with nVenus and cVenus fusions co-expressed in Nicotiana benthamiana leaf cells by Agrobacterium infiltration; 50 uM MG132 applied after 24 h, fluorescence observed after a further 24 h
[2] = target: T2, JAZ8 fused to the N-terminal fragment of Venus (JAZ8-nVenus) (Arabidopsis thaliana); experiment: as above

Molecule	binding [1]	binding [2]
ERF15 fused to the C-terminal fragment of Venus (ERF15-cVenus) (from UniProt Q8VYM0 1-243)	binds	no binding
ORA59 fused to the C-terminal fragment of Venus (ORA59-cVenus) (from UniProt Q9LND1 1-244)	binds	–
B1	binds	–
